Experimental data as given in publication PMC8809462.
These are yes or no findings as the source states them, for the method shown. Binding seen in cells or lysates may run through a third protein. Binding can be weak; no strength is given.

Target: JNK (mouse (endogenous in BV2 and primary mouse microglia))
Experiment: co-IP; immunoprecipitation from microglia (BV2 cells and primary microglia), DUSP6 detected by Western blot; cells with or without silencing of TCONS_00145741 and with 20 U/ml thrombin for 24 h (Figure 5D); no protocol in the methods

B1: DUSP6 (enzyme, UniProt Q9DBB1 1-381)
chain: MIDTLRPVPFASEMAICKTVSWLNEQLELGNERLLLMDCRPQELYESSHIESAINVAIPGIMLRRLQKGNLPVRALFTRCEDRDRFTRRCGTDTVVLYDENSSDWNENTGGESVLGLLLKKLKDEGCRAFYLEGGFSKFQAEFALHCETNLDGSCSSSSPPLPVLGLGGLRISSDSSSDIESDLDRDPNSATDSDGSPLSNSQPSFPVEILPFLYLGCAKDSTNLDVLEEFGIKYILNVTPNLPNLFENAGEFKYKQIPISDHWSQNLSQFFPEAISFIDEARGKNCGVLVHCLAGISRSVTVTVAYLMQKLNLSMNDAYDIVKMKKSNISPNFNFMGQLLDFERTLGLSSPCDNRVPTPQLYFTTPSNQNVYQVDSLQST
For B1, the binding was “binds”.
